The source of these data is paper PMC3257293.

Results are given in words; binding and its absence hold for the method and conditions named. Some results given as binding are weak or reduced against the parent protein; the word gives no strength. Sequences can lack the tags named with a protein.

Test [1] has as its target T1, Bfa1^M413I, fused to the DNA binding domain in pGilda (S. cerevisiae) (UniProt P47113).
T1 sequence: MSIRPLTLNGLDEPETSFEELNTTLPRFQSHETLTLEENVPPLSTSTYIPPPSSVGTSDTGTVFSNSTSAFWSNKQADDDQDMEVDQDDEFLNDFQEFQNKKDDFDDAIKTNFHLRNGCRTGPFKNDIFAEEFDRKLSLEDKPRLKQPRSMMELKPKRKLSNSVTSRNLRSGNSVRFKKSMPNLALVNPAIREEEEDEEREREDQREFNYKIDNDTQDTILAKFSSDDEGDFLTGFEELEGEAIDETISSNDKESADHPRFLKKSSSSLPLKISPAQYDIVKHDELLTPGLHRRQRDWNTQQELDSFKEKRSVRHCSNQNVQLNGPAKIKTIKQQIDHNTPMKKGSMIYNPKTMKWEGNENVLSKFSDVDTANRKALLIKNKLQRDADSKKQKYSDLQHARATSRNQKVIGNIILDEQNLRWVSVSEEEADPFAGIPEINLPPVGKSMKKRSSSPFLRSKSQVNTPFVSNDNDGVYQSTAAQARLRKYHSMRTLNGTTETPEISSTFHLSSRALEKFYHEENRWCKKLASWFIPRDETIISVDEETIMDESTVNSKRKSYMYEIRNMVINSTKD
As to the kind of experiment: two-hybrid; Cdc5, Tem1 and Bub2 fused to the activation domain in pJG4-5; Bfa1 and each Bfa1 mutant fused to the DNA binding domain in pGilda; yeast strain EGY48 with the reporter plasmid pSH18-34; measured quantitatively.

The target of test [2] is T2, Bfa1^DDR2 (Deletion of Direct Repeat 2; Bfa1^(G411E M413I D416A W422A)), fused to the DNA binding domain in pGilda (S. cerevisiae) (UniProt P47113).
T2 sequence: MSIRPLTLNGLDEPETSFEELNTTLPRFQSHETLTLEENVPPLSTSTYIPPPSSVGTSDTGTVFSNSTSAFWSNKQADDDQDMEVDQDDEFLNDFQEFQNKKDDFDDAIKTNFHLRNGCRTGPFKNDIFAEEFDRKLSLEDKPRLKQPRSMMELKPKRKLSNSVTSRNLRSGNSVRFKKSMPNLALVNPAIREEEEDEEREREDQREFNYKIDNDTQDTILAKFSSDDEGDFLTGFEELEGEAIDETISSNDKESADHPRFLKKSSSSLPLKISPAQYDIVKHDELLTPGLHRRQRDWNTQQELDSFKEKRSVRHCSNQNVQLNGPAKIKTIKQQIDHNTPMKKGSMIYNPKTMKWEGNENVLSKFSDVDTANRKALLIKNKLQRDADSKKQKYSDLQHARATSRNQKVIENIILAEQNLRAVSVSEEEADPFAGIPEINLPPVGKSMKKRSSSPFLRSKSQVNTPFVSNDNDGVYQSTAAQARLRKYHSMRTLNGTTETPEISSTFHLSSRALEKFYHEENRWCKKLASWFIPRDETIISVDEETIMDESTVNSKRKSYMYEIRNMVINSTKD
The test is described as above.

B1: Cdc5, fused to the DNA activation domain in pJG4-5 (enzyme, UniProt P32562 1-705)
chain: MSLGPLKAINDKQLNTRSKLVHTPIKGNTADLVGKENHFKQTKRLDPNNDHHHQPAQKKKREKLSALCKTPPSLIKTRGKDYHRGHFLGEGGFARCFQIKDDSGEIFAAKTVAKASIKSEKTRKKLLSEIQIHKSMSHPNIVQFIDCFEDDSNVYILLEICPNGSLMELLKRRKVLTEPEVRFFTTQICGAIKYMHSRRVIHRDLKLGNIFFDSNYNLKIGDFGLAAVLANESERKYTICGTPNYIAPEVLMGKHSGHSFEVDIWSLGVMLYALLIGKPPFQARDVNTIYERIKCRDFSFPRDKPISDEGKILIRDILSLDPIERPSLTEIMDYVWFRGTFPPSIPSTVMSEAPNFEDIPEEQSLVNFKDCMEKSLLLESMSSDKIQRQKRDYISSIKSSIDKLEEYHQNRPFLPHSLSPGGTKQKYKEVVDIEAQRRLNDLAREARIRRAQQAVLRKELIATSTNVIKSEISLRILASECHLTLNGIVEAEAQYKMGGLPKSRLPKIKHPMIVTKWVDYSNKHGFSYQLSTEDIGVLFNNGTTVLRLADAEEFWYISYDDREGWVASHYLLSEKPRELSRHLEVVDFFAKYMKANLSRVSTFGREEYHKDDVFLRRYTRYKPFVMFELSDGTFQFNFKDHHKMAISDGGKLVTYISPSHESTTYPLVEVLKYGEIPGYPESNFREKLTLIKEGLKQKSTIVTVD
Turning to B1, the binding result in test [1] and in test [2] was “binds” in each case.
